# Measurements taken from the supplement of paper PMC4604168 (melanoma cell lines).
# The list shows a part of the results. Repeats are few or missing, and single values can be far off.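 Cells were imaged in 1,536-well plates, and nuclei stained with an antibody against cleaved PARP were counted against all DNA-stained nuclei to give the apoptosis fraction. Screening doses were chosen to leave most cells alive, and resting and induced cleaved-PARP levels differ strongly between cell lines.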
# Key:
# Test in all cases: cleaved PARP positive nuclei fraction relative to DMSO control; melanoma cells; higher = more apoptosis
# Conditions in all cases: library dose: low library concentration; 72 h
# MZ2-MEL = system: MZ2-MEL
# MeWo = system: MeWo
# RPMI7951 = system: RPMI7951
# RVH-421 = system: RVH-421
# SkMel28 = system: SkMel28
# SkMel2 = system: SkMel2
# SkMel30 = system: SkMel30
# SkMel5 = system: SkMel5
# UACC257 = system: UACC257
# UACC62 = system: UACC62
Structure (SMILES),cleaved PARP positive nuclei fraction (MZ2-MEL) [%],cleaved PARP positive nuclei fraction (MeWo) [%],cleaved PARP positive nuclei fraction (RPMI7951) [%],cleaved PARP positive nuclei fraction (RVH-421) [%],cleaved PARP positive nuclei fraction (SkMel28) [%],cleaved PARP positive nuclei fraction (SkMel2) [%],cleaved PARP positive nuclei fraction (SkMel30) [%],cleaved PARP positive nuclei fraction (SkMel5) [%],cleaved PARP positive nuclei fraction (UACC257) [%],cleaved PARP positive nuclei fraction (UACC62) [%]
"OCc1c[nH]c2ccccc12 [Indole-3-carbinol] + O=c1cc(-c2cccc3c2Sc2ccccc2S3)oc(N2CCOCC2)c1 [KU55933] (first compound 0.8 µM, partner dose 1 µM)",127,69.7,127,57.7,126,83.8,115,33.1,103,152
"C#Cc1cccc(Nc2ncnc3cc(OCCOC)c(OCCOC)cc23)c1 [erlotinib] + O=C(Nc1cccc(Cl)c1)Nc1ncc(CCNc2ncnc3ccsc23)s1 [SNS314] (first compound 0.8 µM, partner dose 0.0008 µM)",28.5,83.3,103,92.8,137,48.6,63.5,56.3,121,90.2
"C=CCNC1=C2C[C@@H](C)C[C@H](OC)[C@H](O)[C@@H](C)/C=C(\C)[C@H](OC(N)=O)[C@@H](OC)/C=C\C=C(/C)C(=O)NC(=CC1=O)C2=O [Tanespimycin] + Cc1cc(N2CCOCC2)cc2[nH]c(-c3c(NC[C@@H](O)c4cccc(Cl)c4)cc[nH]c3=O)nc12 [BMS536924] (first compound 0.002 µM, partner dose 0.2 µM)",127,188,38.1,80.6,85.7,65.8,66.7,66.5,71.7,275
"Nc1cccc2c1CN(C1CCC(=O)NC1=O)C2=O (stereo not given) [lenalidomide] + NCC(=O)Nc1ccc(-n2nc(C(F)(F)F)cc2-c2ccc3c(ccc4ccccc43)c2)cc1 [OSU03012] (first compound 1 µM, partner dose 1 µM)",159,177,46,128,145,164,130,147,96.1,157
"OCc1c[nH]c2ccccc12 [Indole-3-carbinol] + O=C(O)C(=O)Nc1sc2c(c1C(=O)O)CCNC2 [TCS401] (first compound 0.8 µM, partner dose 1.66667 µM)",118,43.5,30.5,197,38.6,83.6,90.7,173,129,124
"C=CCn1c(=O)c2cnc(Nc3ccc(N4CCN(C)CC4)cc3)nc2n1-c1cccc(C(C)(C)O)n1 + CC(C)(C)c1cnc(CSc2cnc(NC(=O)C3CCNCC3)s2)o1 [SNS-032] (first compound 0.02 µM, partner dose 0.01 µM)",224,22.9,73.1,53.2,41.7,121,75.8,90.9,303,158
"Cn1c(Nc2ccc(C(F)(F)F)cc2)nc2cc(Oc3ccnc(-c4ncc(C(F)(F)F)[nH]4)c3)ccc21 + CO[C@@H]1[C@H](N(C)C(=O)c2ccccc2)C[C@H]2O[C@]1(C)n1c3ccccc3c3c4c(c5c6ccccc6n2c5c31)C(=O)NC4 [Midostaurin] (first compound 0.08 µM, partner dose 0.08 µM)",147,176,77.6,145,361,142,92.2,409,112,200
"Cc1nc(Nc2ncc(C(=O)Nc3c(C)cccc3Cl)s2)cc(N2CCN(CCO)CC2)n1 [dasatanib] + O=C(CCCCCCC(=O)Nc1ccccc1)NO [vorinostat] (first compound 0.004 µM, partner dose 0.08 µM)",157,79.5,95.6,97.6,98.3,116,69.4,302,218,80.9
"OCc1c[nH]c2ccccc12 [Indole-3-carbinol] + CO[C@@H]1[C@H](N(C)C(=O)c2ccccc2)C[C@H]2O[C@]1(C)n1c3ccccc3c3c4c(c5c6ccccc6n2c5c31)C(=O)NC4 [Midostaurin] (first compound 0.8 µM, partner dose 0.08 µM)",57.1,66.1,120,331,121,129,77.4,230,148,61.8
"CC(=O)c1c(C)c2cnc(Nc3ccc(N4CCNCC4)cn3)nc2n(C2CCCC2)c1=O [palbociclib] + COC(=O)c1sccc1S(=O)(=O)Nc1ccc(Nc2ccccc2)cc1OC [GSK0660] (first compound 0.04 µM, partner dose 1 µM)",126,54.1,95,140,51.1,44.3,166,54.1,72.6,318
"O=C(Nc1cccc(Cl)c1)Nc1ncc(CCNc2ncnc3ccsc23)s1 + Cn1cncc1[C@@](N)(c1ccc(Cl)cc1)c1ccc2c(c1)c(-c1cccc(Cl)c1)cc(=O)n2C [tipifarnib] (first compound 0.0008 µM, partner dose 0.01 µM)",153,149,114,97.8,137,203,62.4,122,162,102

# An excerpt from the list above, for reference:
Structure (SMILES),cleaved PARP positive nuclei fraction (MZ2-MEL) [%],cleaved PARP positive nuclei fraction (MeWo) [%],cleaved PARP positive nuclei fraction (RPMI7951) [%],cleaved PARP positive nuclei fraction (RVH-421) [%],cleaved PARP positive nuclei fraction (SkMel28) [%],cleaved PARP positive nuclei fraction (SkMel2) [%],cleaved PARP positive nuclei fraction (SkMel30) [%],cleaved PARP positive nuclei fraction (SkMel5) [%],cleaved PARP positive nuclei fraction (UACC257) [%],cleaved PARP positive nuclei fraction (UACC62) [%]
"CC(=O)c1c(C)c2cnc(Nc3ccc(N4CCNCC4)cn3)nc2n(C2CCCC2)c1=O [palbociclib] + COC(=O)c1sccc1S(=O)(=O)Nc1ccc(Nc2ccccc2)cc1OC [GSK0660] (first compound 0.04 µM, partner dose 1 µM)",126,54.1,95,140,51.1,44.3,166,54.1,72.6,318
"O=C(Nc1cccc(Cl)c1)Nc1ncc(CCNc2ncnc3ccsc23)s1 + Cn1cncc1[C@@](N)(c1ccc(Cl)cc1)c1ccc2c(c1)c(-c1cccc(Cl)c1)cc(=O)n2C [tipifarnib] (first compound 0.0008 µM, partner dose 0.01 µM)",153,149,114,97.8,137,203,62.4,122,162,102
